B1: myeloid differentiation protein-2 (MD-2) (natural protein, human, UniProt Q9Y6Y9 19-160, looked up)
chain: QKQYWVCNSSDASISYTYCDKMQYPISINVNPCIELKRSKGLLHIFYIPRRDLKQLYFNLYITVNTMNLPKRKEVICRGSDDDYSFCRALKGETVNTTISFSFKGIKFSKGKYKCVVEAISGSPEEMLFCLEFVILHQPNSN
notes: also called hMD-2

Amino acid sequences for entries named in this document (tags omitted). Residues count along the entry.
UniProt O00206, residues 27-631: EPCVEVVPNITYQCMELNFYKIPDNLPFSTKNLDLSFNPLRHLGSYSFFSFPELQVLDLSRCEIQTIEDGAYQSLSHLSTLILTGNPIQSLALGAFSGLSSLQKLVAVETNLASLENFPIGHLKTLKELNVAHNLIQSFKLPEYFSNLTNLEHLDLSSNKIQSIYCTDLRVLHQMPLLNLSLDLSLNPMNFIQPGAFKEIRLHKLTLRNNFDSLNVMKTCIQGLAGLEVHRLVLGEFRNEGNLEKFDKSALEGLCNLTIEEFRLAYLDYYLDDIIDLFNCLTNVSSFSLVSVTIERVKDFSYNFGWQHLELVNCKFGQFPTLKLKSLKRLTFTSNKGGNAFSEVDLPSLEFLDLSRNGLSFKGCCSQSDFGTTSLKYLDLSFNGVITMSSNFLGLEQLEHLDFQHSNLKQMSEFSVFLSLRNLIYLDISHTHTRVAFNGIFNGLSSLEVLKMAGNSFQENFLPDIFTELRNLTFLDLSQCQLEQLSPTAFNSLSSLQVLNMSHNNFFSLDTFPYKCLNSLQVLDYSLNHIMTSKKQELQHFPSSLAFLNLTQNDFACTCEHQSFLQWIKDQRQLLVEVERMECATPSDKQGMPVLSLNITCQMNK

The target in experiment [1] is B1. Put plainly: ELISA; 200 ng MD-2 (or BSA) coated on 96-well plates, blocked with 1% BSA; 40 µg/ml Fc, TFE, TOY3 or TOY8 for 1 hr with or without FITC-labeled LPS (10 µg/ml); HRP-conjugated anti-Fc antibody; absorbance and fluorescence (IVIS) read; both purified.
For experiment [2], the target named is TLR4 full-length ectodomain fused to IgG-Fc (TFE) (human) (UniProt O00206). Put plainly: solid-phase binding of FITC-LPS, fluorescence by IVIS imaging; 200 ng Fc, TFE, TOY3 or TOY8 coated on 96-well plates; FITC-labeled LPS (10 µg/ml) with or without MD-2 (1 µg/ml) for 2 hr; fluorescence of captured FITC-LPS; both purified.

No constants are given. Whether binding was seen depends on the method and setting. Some binding calls cover weakened binding; strength is not graded here.

With “TLR4 full-length ectodomain fused to IgG-Fc (TFE) (from UniProt O00206 27-631) (Fc fusion)”, the binding result in experiment [1] is recorded as “binds”.

With B1, the binding entry in experiment [2] is given as “binds”.
